Results as given in paper doi:10.1101/2021.07.30.454423.
Results are given in words; binding and its absence hold for the method and conditions named. Binding seen in cells or lysates may run through a third protein. Some entries that bind do so weakly or less than the wild type.

Target: T1, endogenous TMEM30A in mouse brain (mouse (endogenous in brain)) (UniProt Q8VEK0)
T1 sequence: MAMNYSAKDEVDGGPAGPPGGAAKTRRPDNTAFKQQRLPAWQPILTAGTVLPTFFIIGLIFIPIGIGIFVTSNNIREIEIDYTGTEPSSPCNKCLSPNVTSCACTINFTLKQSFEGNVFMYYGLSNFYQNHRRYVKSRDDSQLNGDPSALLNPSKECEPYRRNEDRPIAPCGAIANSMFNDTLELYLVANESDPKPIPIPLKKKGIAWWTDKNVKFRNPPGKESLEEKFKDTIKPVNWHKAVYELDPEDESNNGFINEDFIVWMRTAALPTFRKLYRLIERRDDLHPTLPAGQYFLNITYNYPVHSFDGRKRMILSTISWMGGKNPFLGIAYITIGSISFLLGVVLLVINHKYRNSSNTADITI
Assay: co-IP

binding: binds
B1: endogenous ATP8A1 in mouse brain (enzyme, UniProt P70704 1-1164)
chain: MPTMRRTVSEIRSRAEGYEKTDDVSEKTSLADQEEVRTIFINQPQLTKFCNNHVSTAKYNVITFLPRFLYSQFRRAANSFFLFIALLQQIPDVSPTGRYTTLVPLLFILAVAAIKEIIEDIKRHKADNAVNKKQTQVLRNGAWEIVHWEKVAVGEIVKVTNGEHLPADLLSLSSSEPQAMCYIETSNLDGETNLKIRQGLPATSDIKDIDSLMRISGRIECESPNRHLYDFVGNIRLDGHGTVPLGADQILLRGAQLRNTQWVHGIVVYTGHDTKLMQNSTSPPLKLSNVERITNVQILILFCILIAMSLVCSVGSAIWNRRHSGKDWYLHLHYGGASNFGLNFLTFIILFNNLIPISLLVTLEVVKFTQAYFINWDLDMHYEPTDTAAMARTSNLNEELGQVKYIFSDKTGTLTCNVMQFKKCTIAGVAYGHVPEPEDYGCSPDEWQSSQFGDEKTFNDPSLLDNLQNNHPTAPIICEFLTMMAVCHTAVPEREGDKIIYQAASPDEGALVRAAKQLNFVFTGRTPDSVIIDSLGQEERYELLNVLEFTSARKRMSVVVRTPSGKLRLYCKGADTVIYERLAETSKYKEITLKHLEQFATEGLRTLCFAVAEISESDFEEWRAVYHRASTSVQNRLLKLEESYELIEKNLQLLGATAIEDKLQDQVPETIETLMKADIKIWILTGDKQETAINIGHSCRLLKRNMGMIVINEGSLDGTRETLSRHCTTLGDALRKENDFALIIDGKTLKYALTFGVRQYFLDLALSCKAVICCRVSPLQKSEVVEMVKKQVKVITLAIGDGANDVSMIQTAHVGVGISGNEGLQAANSSDYSIAQFKYLKNLLMVHGAWNYNRVSKCILYCFYKNIVLYIIEIWFAFVNGFSGQILFERWCIGLYNVMFTAMPPLTLGIFERSCRKENMLKYPELYKTSQNALDFNTKVFWVHCLNGLFHSVILFWFPLKALQYGTVFGNGKTSDYLLLGNFVYTFVVITVCLKAGLETSYWTWFSHIAIWGSIALWVVFFGIYSSLWPAVPMAPDMSGEAAMLFSSGVFWVGLLSIPVASLLLDVLYKVIKRTAFKTLVDEVQELEAKSQDPGAVVLGKSLTERAQLLKNVFKKNHVNLYRSESLQQNLLHGYAFSQDENGIVSQSEVIRAYDTTKQRPDEW
